For at least one entry, the source does not settle the construct or the ends of the probe. Weaker means in comparison with the reference protein, sequence or condition of that experiment. At least one verdict rests on a figure or table, not on a statement of the authors.
Target: PU.1 (MST prep) (Homo sapiens) (UniProt P17947)
Experiment: MST
Conditions: MST: 50 nM DNA, PU.1 dilution series, buffer not given, recombinant protein, label: Cy3 on one strand
[1] = unmodified, protein details: N-terminal His

Sequence: ACGTAAAGAGGAAGCGACGT (double strand) [5C_distal]
- binding result [1]: binds

Sequence: ACGTGAAGCGGAAGTGACGT (double strand) [5hmC_proximal antisense-hydroxymethylated]
- binding result (5hmC on antisense strand only, 5hmC on strand 2 at the CpG (opposite position 10 of strand 1), protein details: N-terminal His, letters put together from the description): binds

Sequence: ACGTGAAGCGGAAGTGACGT (double strand) [5C_proximal]
- binding result [1]: binds

Sequence: ACGTGAAGCGGAAGTGACGT (double strand) [5mC_proximal antisense-methylated]
- binding result (5mC on antisense strand only, 5mC on strand 2 at the CpG (opposite position 10 of strand 1), protein details: N-terminal His, letters put together from the description): binds

Sequence: ACGTGAAGCGGAAGTGACGT (double strand) [5mC_proximal_sense]
- binding result (5mC on sense strand, 5mC at position 9 of strand 1, protein details: N-terminal …): binds more weakly

Sequence: ACGTGAAGCGGAAGTGACGT (double strand) [5hmC_proximal_sense]
- binding result (5hmC on sense strand, 5hmC at position 9 of strand 1, protein details: N-terminal His): binds more weakly

Sequence: ACGTAAAGAGGAAGCGACGT (double strand) [5mC_distal_sense]
- binding result (5mC does not interfere, 5mC at position 15 of strand 1, protein details: N-terminal His): binds

Sequence: ACGTAAAGAGGAAGCGACGT (double strand) [5hmC_distal_sense]
- binding result (5hmC does not interfere, 5hmC at position 15 of strand 1, protein details: N-terminal His): binds

Reference: article PMC6972792
